Experiment in all cases: PRISMA enrichment of interactor (LFQ) in peptide spot vs all other peptide spots (log2 fold change); higher = stronger / more specific binding of the interactor to the peptide
Assay [1] deals with ATXN2L, Q8WWM7. The method, then:
(§1)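 PRISMA: 15-aa overlapping tiles (offset 8 aa) of 60 microproteins, plus SOS1/GLUT1 control peptides, were spot-synthesized on cellulose membranes in triplicate. Membranes were incubated with benzonase-treated HEK293T lysate, and bound proteins were identified by LC-MS/MS with LFQ. Enrichment is the log2 fold change of each protein in one spot versus all other spots. Only interactors passing the significance cutoff are listed.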

Protein sequences, listed by entry. Tags and fused reporters are not part of them.
PCBP2, Q15366, UniProt Q15366, whole entry: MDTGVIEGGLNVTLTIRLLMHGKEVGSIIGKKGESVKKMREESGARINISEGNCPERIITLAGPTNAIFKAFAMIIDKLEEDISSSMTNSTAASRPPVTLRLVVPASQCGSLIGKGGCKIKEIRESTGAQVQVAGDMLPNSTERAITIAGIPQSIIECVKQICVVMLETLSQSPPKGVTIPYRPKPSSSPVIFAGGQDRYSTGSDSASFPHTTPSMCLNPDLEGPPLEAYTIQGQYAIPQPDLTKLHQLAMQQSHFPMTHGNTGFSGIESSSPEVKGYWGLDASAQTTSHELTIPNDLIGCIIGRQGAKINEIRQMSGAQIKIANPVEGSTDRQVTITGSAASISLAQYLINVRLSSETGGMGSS
HIST1H1D, P16402, UniProt P16402, whole entry: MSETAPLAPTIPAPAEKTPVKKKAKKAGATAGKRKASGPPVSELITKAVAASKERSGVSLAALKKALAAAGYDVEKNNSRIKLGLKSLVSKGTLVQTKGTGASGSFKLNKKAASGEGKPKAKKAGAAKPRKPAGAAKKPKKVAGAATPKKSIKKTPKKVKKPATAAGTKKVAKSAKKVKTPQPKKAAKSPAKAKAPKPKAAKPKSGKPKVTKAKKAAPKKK
MORF4L2, Q15014, UniProt Q15014, whole entry: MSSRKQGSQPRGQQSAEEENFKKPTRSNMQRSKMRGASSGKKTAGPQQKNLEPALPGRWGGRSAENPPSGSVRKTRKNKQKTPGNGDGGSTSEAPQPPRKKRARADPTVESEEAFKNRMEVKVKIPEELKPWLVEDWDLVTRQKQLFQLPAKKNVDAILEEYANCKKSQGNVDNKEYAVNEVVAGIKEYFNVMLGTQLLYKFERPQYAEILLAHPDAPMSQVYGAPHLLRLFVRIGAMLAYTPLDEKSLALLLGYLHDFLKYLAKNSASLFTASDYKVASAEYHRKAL
ATXN2, Q99700, UniProt Q99700, whole entry: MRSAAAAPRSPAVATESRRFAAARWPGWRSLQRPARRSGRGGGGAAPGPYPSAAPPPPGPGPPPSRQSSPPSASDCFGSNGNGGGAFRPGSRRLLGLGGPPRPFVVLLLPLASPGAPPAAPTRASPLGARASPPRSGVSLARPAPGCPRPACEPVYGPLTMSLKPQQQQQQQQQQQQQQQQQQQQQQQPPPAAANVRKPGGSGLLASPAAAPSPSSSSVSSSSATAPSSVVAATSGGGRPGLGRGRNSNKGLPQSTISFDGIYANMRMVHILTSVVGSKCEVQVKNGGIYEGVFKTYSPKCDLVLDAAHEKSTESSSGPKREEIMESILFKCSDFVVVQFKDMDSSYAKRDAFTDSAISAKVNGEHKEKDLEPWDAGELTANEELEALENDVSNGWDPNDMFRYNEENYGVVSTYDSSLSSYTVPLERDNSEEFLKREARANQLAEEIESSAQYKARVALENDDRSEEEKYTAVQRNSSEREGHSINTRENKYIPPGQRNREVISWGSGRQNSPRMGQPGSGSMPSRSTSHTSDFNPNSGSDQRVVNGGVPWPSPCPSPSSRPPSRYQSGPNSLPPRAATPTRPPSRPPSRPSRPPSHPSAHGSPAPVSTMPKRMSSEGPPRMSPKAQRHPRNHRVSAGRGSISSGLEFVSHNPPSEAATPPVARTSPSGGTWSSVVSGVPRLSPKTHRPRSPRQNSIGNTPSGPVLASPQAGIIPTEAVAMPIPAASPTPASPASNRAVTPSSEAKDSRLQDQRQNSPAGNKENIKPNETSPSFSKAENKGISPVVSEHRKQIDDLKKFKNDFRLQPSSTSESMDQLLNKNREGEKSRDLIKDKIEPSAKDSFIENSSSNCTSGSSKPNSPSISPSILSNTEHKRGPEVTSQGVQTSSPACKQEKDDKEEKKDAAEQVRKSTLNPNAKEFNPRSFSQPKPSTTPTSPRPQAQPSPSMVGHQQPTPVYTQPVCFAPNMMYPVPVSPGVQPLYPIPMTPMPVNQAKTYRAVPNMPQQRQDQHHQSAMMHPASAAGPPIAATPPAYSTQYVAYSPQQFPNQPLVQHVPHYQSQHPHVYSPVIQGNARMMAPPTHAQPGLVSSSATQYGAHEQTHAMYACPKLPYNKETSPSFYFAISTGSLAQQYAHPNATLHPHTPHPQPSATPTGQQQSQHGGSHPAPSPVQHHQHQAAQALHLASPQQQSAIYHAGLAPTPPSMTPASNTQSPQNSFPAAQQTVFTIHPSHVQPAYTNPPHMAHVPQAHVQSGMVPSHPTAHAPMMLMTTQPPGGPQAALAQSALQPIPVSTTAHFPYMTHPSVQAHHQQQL
VAMP3, Q15836, UniProt Q15836, whole entry: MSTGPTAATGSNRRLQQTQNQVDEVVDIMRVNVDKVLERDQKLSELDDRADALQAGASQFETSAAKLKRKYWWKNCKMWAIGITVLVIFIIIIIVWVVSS

Assay [2] addresses C19orf53, Q9UNZ5. The method, then:
as §1

Assay [3] has as its target CHD3, Q12873. The protocol:
as §1

The target in assay [4] is DBR1, Q9UK59. The protocol: as §1
In assay [5] the target is GATAD2A, Q86YP4. The method, then: as §1
For assay [6], the target named is HAGH, Q16775. The method, then: as §1
Assay [7] has as its target LYZ, P61626. The protocol: as §1
Assay [8] concerns the target MRPS18B, Q9Y676. The method, then: as §1
Assay [9] addresses NELFE, P18615. The protocol: as §1
For assay [10], the target named is PUSL1, Q8N0Z8. The protocol: as §1
Assay [11] addresses SRP14, P37108. The protocol: as §1
Assay [12] concerns the target TRAP1, Q12931. The method, then:
as §1

Assay [13] has as its target ZNF22, P17026. The protocol:
as §1

The target of assay [14] is ATP6V1F, Q16864. The method, then: as §1
In assay [15] the target is AUTS2, Q8WXX7. The protocol: as §1
Assay [16] deals with CCDC86, Q9H6F5. The method, then: as §1
The target in assay [17] is IVD, P26440. The protocol: as §1
Assay [18] has as its target WDR43, Q15061. The protocol:
as §1

Assay [19] deals with ATP6V1A, P38606. The method, then: as §1
The target in assay [20] is DHX8, Q14562. The protocol:
as §1

For assay [21], the target named is ERICH1, Q86X53. The method, then: as §1
The target of assay [22] is MAEA, Q7L5Y9. The method, then:
as §1

Assay [23] concerns the target NAP1L1, P55209. The protocol: as §1
Assay [24] concerns the target PCBP2, Q15366. The method, then: as §1
In assay [25] the target is PSMD14, O00487. The method, then:
as §1

Assay [26] deals with ATP6V0D1, P61421. The method, then:
as §1

For assay [27], the target named is CEBPZ, Q03701. The protocol:
as §1

Assay [28] concerns the target CYP51A1, Q16850. The method, then: as §1
Assay [29] has as its target EIF3I, Q13347. The method, then: as §1
The target of assay [30] is EIF6, P56537. The protocol:
as §1

Assay [31] deals with HIST1H1C, P16403. The protocol:
as §1

Assay [32] has as its target HIST1H1D, P16402. The protocol:
as §1

For assay [33], the target named is HMGN4, O00479. The protocol: as §1
The target of assay [34] is LARP1, Q6PKG0. The protocol: as §1
Assay [35] deals with MORF4L2, Q15014. The protocol: as §1
For assay [36], the target named is RRS1, Q15050. The method, then: as §1
Assay [37] has as its target SFXN2, Q96NB2. The protocol: as §1
Assay [38] concerns the target UPF1, Q92900. The method, then:
as §1

For assay [39], the target named is ZNF280C, Q8ND82. The protocol: as §1
Assay [40] concerns the target ATP6V1H, Q9UI12. The protocol:
as §1

Assay [41] deals with MCM3, P25205. The protocol: as §1
Assay [42] concerns the target METTL15, A6NJ78. The protocol:
as §1

Assay [43] concerns the target POLE, Q07864. The protocol:
as §1

The target in assay [44] is POP1, Q99575. The protocol:
as §1

Assay [45] has as its target UTP15, Q8TED0. The method, then:
as §1

The target of assay [46] is C19orf25, Q9UFG5. The protocol: as §1
The target of assay [47] is DHX30, Q7L2E3. The protocol: as §1
The target in assay [48] is IPO9, Q96P70. The method, then: as §1
The target in assay [49] is POLR2B, P30876. The method, then:
as §1

Assay [50] has as its target PRRC2B, Q5JSZ5. The method, then:
as §1

The target in assay [51] is PUM1, Q14671. The protocol: as §1
In assay [52] the target is RALY, Q9UKM9. The method, then:
as §1

Assay [53] deals with RER1, O15258. The protocol:
as §1

Assay [54] deals with SAP18, O00422. The protocol: as §1
The target of assay [55] is ATXN7L3B, Q96GX2. The protocol:
as §1

The target of assay [56] is CAMK2D, Q13557. The method, then:
as §1

Assay [57] deals with HNRNPF, P52597. The protocol:
as §1

Assay [58] has as its target MRPL44, Q9H9J2. The method, then:
as §1

Assay [59] deals with NDUFB7, P17568. The protocol: as §1
The target in assay [60] is PLK1, P53350. The protocol:
as §1

The target of assay [61] is POLR2C, P19387. The protocol: as §1
Assay [62] concerns the target SCD, O00767. The method, then: as §1
Assay [63] concerns the target SHROOM3, Q8TF72. The method, then: as §1
For assay [64], the target named is ZNF326, Q5BKZ1. The protocol:
as §1

The target in assay [65] is AURKAIP1, Q9NWT8. The protocol:
as §1

The target in assay [66] is COPS6, Q7L5N1. The protocol:
as §1

For assay [67], the target named is GATA3, P23771. The protocol:
as §1

The target of assay [68] is NFS1, Q9Y697. The method, then: as §1
The target of assay [69] is POLD2, P49005. The method, then:
as §1

Assay [70] concerns the target RBBP4, Q09028. The method, then:
as §1

The target in assay [71] is ATXN2, Q99700. The method, then: as §1
The target of assay [72] is BCAP31, P51572. The method, then: as §1
The target in assay [73] is CSRP2, Q16527. The protocol:
as §1

The target of assay [74] is FCF1, Q9Y324. The protocol:
as §1

Assay [75] has as its target HIST1H1E, P10412. The method, then: as §1
For assay [76], the target named is HP1BP3, Q5SSJ5. The protocol: as §1
Assay [77] concerns the target IMPDH2, P12268. The protocol:
as §1

Assay [78] concerns the target LRRC41, Q15345. The method, then: as §1
The target in assay [79] is MRPS31, Q92665. The protocol: as §1
Assay [80] addresses NME4, O00746. The protocol:
as §1

The target of assay [81] is PRPF4B. The method, then: as §1
The target in assay [82] is PRPS2, P11908. The method, then: as §1
The target in assay [83] is PSMC5, P62195. The protocol:
as §1

Assay [84] addresses SYNE2, Q8WXH0. The method, then:
as §1

Assay [85] has as its target TAF15, Q92804. The protocol:
as §1

In assay [86] the target is TEX264, Q9Y6I9. The protocol: as §1
The target of assay [87] is VAMP3, Q15836. The protocol:
as §1

The target in assay [88] is YIF1A, O95070. The protocol: as §1

This is one part of the list. Only hits are listed; about a third recur on repeated control peptides.

B1: NAV2-AS2_2 (peptide)
chain: SDSSDTSEGFRLHLE
Consider B1, for which the “PRISMA enrichment of interactor (log2)” value in assay [1] was determined as 6.08; in assay [2] it was 7.51; in assay [3], 4.83; in assay [4], 3.94; in [5], 7.75; in [6], 5.71. Moreover, the “PRISMA enrichment of interactor (log2)” value in assay [7] is 3.77; in assay [8], 4.33; in [9] it was 5.13; in assay [10], 5.29; in [11], 5.6; in [12] it was 5.29. In assay [13], the “PRISMA enrichment of interactor (log2)” value came to 4.56.

B2: RP11-140K17.3_2 (peptide)
chain: LPRLFTTKPPPRRRA
Turning to B2, the “PRISMA enrichment of interactor (log2)” value worked out at 5.21 in assay [14]; 4.62 in [15]; 4.88 in assay [16]; 5.21 in assay [17]; 4.42 in [18].

B3: EBAG9 (peptide)
chain: KAAFLREICVTLLPS
On to B3, for which the “PRISMA enrichment of interactor (log2)” value was 6.16 in [19]; 6.4 in [20]; 4.74 in [21]; 5.43 in assay [22]; 7.3 in assay [23]; 3.97 in assay [24]. For the same molecule, the “PRISMA enrichment of interactor (log2)” value in [25] was 4.72.

B4: SNHG16 (peptide)
chain: EHGEQSQAFSDDGAV
Consider B4, for which the “PRISMA enrichment of interactor (log2)” value in assay [26] was 5.49; in assay [2] it was 8.35; in [27], 4.81; in [28], 4.02; in assay [29], 4.86; in assay [30], 5.32. Also, the “PRISMA enrichment of interactor (log2)” value in [31] came to 4.55; in [32], 5.74; in [33], 4.63; in [34], 5.31; in [35] it was 5.27; in assay [36] it was 5.46. In addition, the “PRISMA enrichment of interactor (log2)” value in assay [37] was determined as 6.8; in [38], 4.54; in assay [39] it was 4.67.

B5: MRPL33 (peptide)
chain: KQRVLFVEKKKIRSL
For B5, the “PRISMA enrichment of interactor (log2)” value in assay [40] is 6.7; in assay [41] it was 6.98; in assay [42], 3.92; in [43], 4.35; in assay [44], 7.24; in assay [45] it was 5.45.

B6: RP11-12K22.1 (peptide)
chain: ETCVYQMERRAMGIL
Consider B6, for which the “PRISMA enrichment of interactor (log2)” value in [14] worked out at 4.32; in [46] it was 4.57; in [47], 4.67; in assay [48], 4.71; in assay [49], 6.06; in assay [50], 7.15. The “PRISMA enrichment of interactor (log2)” value stood at 4.94 in assay [51], 4.93 in [52], 5.89 in assay [53] and 6.14 in [54].

B7: ABR (peptide)
chain: MVSRCLSEPVSLTAC
In the case of B7, the “PRISMA enrichment of interactor (log2)” value in [55] was 5.59; in [56], 4.14; in assay [57] it was 5.09; in [58], 4.66; in [59] it was 7.6; in assay [60], 6.06. In addition, the “PRISMA enrichment of interactor (log2)” value was 5.34 in [61]; 4.91 in assay [36]; 7.82 in [62]; 8.46 in assay [63]; 5.44 in assay [64].

B8: MIEF-MP (peptide)
chain: QLRYTDRDFYFASIR
For the molecule B8, the “PRISMA enrichment of interactor (log2)” value is 5.08 in [65]; 5.89 in assay [66]; 5.91 in [67]; 4.99 in [68]; 5.11 in [69]; 7.51 in assay [70].

B9: C5orf56 (peptide)
chain: GEGRRMQRPPAWSAG
Turning to B9, the “PRISMA enrichment of interactor (log2)” value in assay [71] amounted to 4.74; in assay [72], 4.54; in [73], 5.19; in [74], 4.23; in assay [75], 7.2; in assay [76], 6.77. The “PRISMA enrichment of interactor (log2)” value in assay [77] was determined as 5.22; in assay [78] it was 4.32; in assay [79] it was 4.86; in [80], 4.69; in assay [81], 5.21; in assay [82] it was 7.96. Besides, the “PRISMA enrichment of interactor (log2)” value in [83] was determined as 6.07; in [84], 5.94; in assay [85], 4.65; in assay [86] it was 7.74; in assay [87] it was 5.93; in [88], 3.88.

The values are drawn from the supplement of paper PMC10032668.
